# Some of the results follow.
# By UniProt entry, the sequences of proteins in these tests, tags left out. Where a name states a change or a piece, a line headed by the entry shows the natural chain unless it says otherwise.
# UniProt O43353, whole entry, looked up: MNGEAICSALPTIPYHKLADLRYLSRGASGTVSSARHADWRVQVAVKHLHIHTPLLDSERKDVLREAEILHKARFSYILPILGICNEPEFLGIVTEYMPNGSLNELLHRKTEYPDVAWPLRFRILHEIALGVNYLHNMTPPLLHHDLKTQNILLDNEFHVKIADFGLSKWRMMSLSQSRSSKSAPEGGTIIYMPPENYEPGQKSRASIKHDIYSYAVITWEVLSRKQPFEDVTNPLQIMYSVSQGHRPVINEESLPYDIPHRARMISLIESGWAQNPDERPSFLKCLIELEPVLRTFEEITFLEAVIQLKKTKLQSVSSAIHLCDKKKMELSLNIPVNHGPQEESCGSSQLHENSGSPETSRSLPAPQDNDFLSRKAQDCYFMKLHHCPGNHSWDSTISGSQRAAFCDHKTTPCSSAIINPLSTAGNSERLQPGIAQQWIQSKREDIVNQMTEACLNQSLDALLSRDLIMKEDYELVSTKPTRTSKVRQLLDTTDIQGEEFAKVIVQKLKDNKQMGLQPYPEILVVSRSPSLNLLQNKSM
# UniProt Q8WVD3: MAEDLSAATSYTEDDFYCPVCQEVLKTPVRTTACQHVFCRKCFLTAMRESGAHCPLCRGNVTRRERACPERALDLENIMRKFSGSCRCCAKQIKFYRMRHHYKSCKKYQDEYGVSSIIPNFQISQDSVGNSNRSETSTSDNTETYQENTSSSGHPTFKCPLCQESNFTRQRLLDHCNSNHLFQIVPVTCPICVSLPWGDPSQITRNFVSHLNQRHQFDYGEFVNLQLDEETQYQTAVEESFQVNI
# UniProt Q8WVD5: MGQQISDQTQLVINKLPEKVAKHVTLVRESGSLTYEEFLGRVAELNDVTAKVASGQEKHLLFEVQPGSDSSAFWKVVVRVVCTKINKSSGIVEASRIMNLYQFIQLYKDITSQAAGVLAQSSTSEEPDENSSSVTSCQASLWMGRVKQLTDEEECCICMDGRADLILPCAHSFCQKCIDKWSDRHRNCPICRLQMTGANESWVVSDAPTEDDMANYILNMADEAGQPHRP
# UniProt Q05823: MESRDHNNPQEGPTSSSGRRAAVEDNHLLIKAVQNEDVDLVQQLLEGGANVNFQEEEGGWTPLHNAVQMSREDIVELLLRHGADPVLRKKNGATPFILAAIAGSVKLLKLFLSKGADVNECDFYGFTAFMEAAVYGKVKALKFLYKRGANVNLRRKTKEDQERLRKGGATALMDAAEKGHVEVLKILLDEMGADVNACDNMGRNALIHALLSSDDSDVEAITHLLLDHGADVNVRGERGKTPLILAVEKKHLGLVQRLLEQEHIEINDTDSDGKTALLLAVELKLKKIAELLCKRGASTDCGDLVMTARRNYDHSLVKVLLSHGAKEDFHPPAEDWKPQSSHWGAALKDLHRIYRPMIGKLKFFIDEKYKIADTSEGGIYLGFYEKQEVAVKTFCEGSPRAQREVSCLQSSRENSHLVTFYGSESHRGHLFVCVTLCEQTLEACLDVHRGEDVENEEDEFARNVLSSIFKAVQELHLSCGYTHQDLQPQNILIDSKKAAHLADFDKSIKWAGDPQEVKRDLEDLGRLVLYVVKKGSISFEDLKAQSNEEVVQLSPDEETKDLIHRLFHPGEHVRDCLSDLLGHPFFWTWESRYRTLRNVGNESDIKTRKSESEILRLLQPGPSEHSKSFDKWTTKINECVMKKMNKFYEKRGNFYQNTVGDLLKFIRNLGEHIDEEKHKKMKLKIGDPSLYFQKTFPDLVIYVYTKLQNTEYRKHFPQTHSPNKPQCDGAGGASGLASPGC
# UniProt Q9BQY4: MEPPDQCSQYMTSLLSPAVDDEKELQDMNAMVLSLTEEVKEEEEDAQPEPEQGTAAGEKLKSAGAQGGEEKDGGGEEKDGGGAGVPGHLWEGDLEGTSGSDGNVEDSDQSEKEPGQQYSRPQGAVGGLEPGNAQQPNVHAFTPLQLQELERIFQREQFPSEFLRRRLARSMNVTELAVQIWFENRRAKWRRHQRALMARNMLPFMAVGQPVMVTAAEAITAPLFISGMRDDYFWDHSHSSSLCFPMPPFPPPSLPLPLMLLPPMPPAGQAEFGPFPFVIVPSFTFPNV
# UniProt P08134, whole entry, looked up: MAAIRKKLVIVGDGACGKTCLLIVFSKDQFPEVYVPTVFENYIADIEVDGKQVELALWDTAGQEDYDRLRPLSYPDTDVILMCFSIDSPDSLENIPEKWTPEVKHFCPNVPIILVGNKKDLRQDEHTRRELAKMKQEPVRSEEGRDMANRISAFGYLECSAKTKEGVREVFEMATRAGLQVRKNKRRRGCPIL
# UniProt Q92834: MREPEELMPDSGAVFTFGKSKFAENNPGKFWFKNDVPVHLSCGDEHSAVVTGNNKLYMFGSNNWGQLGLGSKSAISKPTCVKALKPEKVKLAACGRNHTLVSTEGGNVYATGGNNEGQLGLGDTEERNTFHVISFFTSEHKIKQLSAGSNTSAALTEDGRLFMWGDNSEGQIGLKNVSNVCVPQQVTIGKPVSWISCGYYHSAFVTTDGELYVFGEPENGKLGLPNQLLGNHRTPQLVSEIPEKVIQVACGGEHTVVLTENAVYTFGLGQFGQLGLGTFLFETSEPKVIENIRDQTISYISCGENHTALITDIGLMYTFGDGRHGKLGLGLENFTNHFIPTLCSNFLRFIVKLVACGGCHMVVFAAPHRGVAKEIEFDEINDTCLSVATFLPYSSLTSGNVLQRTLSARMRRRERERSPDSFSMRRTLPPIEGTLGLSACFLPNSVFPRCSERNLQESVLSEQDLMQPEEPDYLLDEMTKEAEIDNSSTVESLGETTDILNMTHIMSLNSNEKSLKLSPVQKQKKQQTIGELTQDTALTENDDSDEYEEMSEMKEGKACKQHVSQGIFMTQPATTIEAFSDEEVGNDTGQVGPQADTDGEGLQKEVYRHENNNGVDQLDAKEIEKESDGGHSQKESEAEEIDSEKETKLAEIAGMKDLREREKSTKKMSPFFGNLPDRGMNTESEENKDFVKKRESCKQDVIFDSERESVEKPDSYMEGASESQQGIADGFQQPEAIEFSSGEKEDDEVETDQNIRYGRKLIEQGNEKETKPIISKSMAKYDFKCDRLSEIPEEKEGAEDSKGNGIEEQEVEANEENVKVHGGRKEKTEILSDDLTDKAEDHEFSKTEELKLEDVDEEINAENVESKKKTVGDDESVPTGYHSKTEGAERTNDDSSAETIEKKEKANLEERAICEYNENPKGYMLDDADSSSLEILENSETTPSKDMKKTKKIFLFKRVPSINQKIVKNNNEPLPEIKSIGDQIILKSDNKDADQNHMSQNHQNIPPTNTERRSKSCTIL
# UniProt Q96BH1: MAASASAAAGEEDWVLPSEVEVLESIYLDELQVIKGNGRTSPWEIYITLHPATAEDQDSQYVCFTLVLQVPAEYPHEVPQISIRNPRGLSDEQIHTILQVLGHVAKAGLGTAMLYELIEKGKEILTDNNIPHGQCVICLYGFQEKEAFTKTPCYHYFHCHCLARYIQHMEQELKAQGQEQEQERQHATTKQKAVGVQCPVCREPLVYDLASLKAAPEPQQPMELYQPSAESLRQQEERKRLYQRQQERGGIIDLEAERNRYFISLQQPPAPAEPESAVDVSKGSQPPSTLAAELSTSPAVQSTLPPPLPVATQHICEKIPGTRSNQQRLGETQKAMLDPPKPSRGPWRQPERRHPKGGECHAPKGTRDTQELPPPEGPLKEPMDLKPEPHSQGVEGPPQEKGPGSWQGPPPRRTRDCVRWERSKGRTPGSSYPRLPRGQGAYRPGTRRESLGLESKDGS
# UniProt Q9Y508: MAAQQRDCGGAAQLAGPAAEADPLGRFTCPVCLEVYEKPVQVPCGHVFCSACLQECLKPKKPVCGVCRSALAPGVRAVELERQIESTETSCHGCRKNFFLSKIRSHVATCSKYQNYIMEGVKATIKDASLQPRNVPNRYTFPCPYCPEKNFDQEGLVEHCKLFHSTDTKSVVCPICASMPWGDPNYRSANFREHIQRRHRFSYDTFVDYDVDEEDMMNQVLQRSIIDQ
# UniProt Q01974, whole entry, looked up: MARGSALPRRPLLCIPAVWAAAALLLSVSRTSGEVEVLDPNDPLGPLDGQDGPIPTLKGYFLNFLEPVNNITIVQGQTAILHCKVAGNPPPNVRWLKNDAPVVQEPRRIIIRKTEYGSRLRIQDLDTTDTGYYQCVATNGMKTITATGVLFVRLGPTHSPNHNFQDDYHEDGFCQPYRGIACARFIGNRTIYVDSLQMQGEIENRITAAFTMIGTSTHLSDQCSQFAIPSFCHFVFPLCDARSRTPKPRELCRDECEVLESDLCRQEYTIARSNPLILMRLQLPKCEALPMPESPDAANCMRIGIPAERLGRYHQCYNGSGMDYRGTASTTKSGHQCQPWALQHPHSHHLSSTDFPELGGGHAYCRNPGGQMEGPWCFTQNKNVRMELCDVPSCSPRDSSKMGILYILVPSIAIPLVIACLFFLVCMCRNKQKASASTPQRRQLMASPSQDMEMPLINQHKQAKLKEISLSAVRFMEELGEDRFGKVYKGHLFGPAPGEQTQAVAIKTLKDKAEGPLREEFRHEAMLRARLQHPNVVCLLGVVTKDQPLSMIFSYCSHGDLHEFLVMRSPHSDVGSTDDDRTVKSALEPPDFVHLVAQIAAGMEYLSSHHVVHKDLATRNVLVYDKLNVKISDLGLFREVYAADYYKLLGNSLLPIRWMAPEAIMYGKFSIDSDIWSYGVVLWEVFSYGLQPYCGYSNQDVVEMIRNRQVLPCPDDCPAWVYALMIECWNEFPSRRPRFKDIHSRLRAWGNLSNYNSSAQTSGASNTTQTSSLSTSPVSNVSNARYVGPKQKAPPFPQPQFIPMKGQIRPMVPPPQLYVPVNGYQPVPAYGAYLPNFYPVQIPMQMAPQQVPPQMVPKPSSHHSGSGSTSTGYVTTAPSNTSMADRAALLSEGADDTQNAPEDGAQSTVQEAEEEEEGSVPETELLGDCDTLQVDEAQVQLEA
# UniProt Q9H4A4: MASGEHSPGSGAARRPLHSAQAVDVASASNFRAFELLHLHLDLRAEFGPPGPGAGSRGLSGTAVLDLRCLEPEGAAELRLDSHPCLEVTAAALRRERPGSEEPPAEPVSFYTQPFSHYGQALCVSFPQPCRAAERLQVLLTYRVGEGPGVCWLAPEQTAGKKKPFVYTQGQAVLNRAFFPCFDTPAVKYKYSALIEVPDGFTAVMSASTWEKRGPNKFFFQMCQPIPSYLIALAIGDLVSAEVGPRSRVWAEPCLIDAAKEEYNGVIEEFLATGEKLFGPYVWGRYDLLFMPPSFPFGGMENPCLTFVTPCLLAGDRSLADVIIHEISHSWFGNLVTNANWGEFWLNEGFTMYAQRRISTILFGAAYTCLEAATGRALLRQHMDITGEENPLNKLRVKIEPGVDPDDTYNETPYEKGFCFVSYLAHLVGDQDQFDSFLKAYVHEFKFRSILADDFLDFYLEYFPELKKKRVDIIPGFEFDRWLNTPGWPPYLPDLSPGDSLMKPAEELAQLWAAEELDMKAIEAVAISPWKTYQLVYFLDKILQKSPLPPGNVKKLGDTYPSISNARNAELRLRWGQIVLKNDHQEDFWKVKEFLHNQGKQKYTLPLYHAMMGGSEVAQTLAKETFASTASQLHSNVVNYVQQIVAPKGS
# UniProt Q8NC42: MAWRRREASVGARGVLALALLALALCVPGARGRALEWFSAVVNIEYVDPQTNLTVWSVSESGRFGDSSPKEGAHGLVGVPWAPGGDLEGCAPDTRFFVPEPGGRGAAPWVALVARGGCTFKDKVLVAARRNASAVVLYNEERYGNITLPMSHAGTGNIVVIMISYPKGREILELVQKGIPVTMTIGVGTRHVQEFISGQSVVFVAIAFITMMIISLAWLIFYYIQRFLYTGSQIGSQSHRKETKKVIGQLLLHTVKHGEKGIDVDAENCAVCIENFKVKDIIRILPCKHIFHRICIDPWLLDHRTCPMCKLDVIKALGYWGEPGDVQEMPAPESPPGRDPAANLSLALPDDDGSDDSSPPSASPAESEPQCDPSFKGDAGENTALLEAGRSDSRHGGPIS
# UniProt Q8IXW5, whole entry, looked up: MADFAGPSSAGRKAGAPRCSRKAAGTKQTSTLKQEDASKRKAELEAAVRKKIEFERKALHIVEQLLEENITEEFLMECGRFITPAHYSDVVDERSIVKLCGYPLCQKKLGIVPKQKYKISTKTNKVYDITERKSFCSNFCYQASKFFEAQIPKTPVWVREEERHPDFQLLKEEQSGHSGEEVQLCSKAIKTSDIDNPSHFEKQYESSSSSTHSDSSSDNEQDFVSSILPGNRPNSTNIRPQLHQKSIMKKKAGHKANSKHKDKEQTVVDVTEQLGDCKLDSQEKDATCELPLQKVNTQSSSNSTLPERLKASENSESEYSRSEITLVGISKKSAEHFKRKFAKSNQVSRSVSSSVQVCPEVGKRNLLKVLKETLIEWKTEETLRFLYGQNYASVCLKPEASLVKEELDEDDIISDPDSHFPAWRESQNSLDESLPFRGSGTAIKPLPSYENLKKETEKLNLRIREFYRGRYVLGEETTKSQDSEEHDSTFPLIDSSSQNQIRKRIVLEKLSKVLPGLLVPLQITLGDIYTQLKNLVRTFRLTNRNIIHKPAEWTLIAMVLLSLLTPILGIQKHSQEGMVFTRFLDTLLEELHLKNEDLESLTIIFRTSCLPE
# Compound: C1=CC=C(C=C1)[C@H](COC2=CC3=C(C=C2)NC(=O)N3)NC(=O)C4=CC=CN(C4=O)CC5=CC(=C(C=C5)F)F
# Assay: log2 fold change, soluble protein after heating vs DMSO (PISA); higher = thermal stabilisation; K562 lysate, 10 uM; active = over 0.2 and 3.5 SD of the protein, either way, in both replicates (recomputed)
# In short: (§1)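 Pellets of K562 cells were dounce-homogenised in PBS pH 7.4 with 1 mM MgCl2, and the crude extract was held at 1 mg/mL protein for a 30 min treatment with 10 μM compound. Aliquots were heated for 3 min over 48°C-58°C and pooled before NP-40 was added to 0.5% at 4°C. The supernatant from 21,000xg for 90 min was quantified by TMTpro 16plex LC-MS/MS with channel sums equalised. Values are reported from duplicates as log-two fold change in thermal stability relative to solvent controls.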
row,Target,log2 fold change
1,RPL15 (UniProt P61313),inactive: 0.039
2,RIPK2 (UniProt O43353),inactive: 0.031
3,RNF138 (UniProt Q8WVD3),inactive: 0.078
4,RNF141 (UniProt Q8WVD5),inactive: 0.075
5,RMND5A (UniProt Q9H871),inactive: 0.009
6,RNF40 (UniProt O75150),inactive: 0
7,RNASEL (UniProt Q05823),inactive: 0.047
8,RNF113A (UniProt O15541),inactive: 0.047
9,RHOXF2 (UniProt Q9BQY4),inactive: -0.038
10,RP2 (UniProt O75695),inactive: -0.002
11,RPL11 (UniProt P62913),inactive: 0.013
12,RIC8B isoform 1 (UniProt Q9NVN3),inactive: -0.029
13,RHOC (UniProt P08134),inactive: -0.003
14,RNASEH2A (UniProt O75792),inactive: 0.005
15,RNF220 (UniProt Q5VTB9),inactive: 0.021
16,RPL24 (UniProt P83731),inactive: 0.066
17,RPL23A (UniProt P62750),inactive: -0.001
18,RPGR (UniProt Q92834),inactive: -0.116
19,RLIM (UniProt Q9NVW2),inactive: 0.049

row,Target,log2 fold change
1,RNF25 (UniProt Q96BH1),inactive: 0.012
2,RIF1 (UniProt Q5UIP0),inactive: -0.004
3,RNGTT (UniProt O60942),inactive: -0.299
4,RPL28 (UniProt P46779),inactive: 0.042
5,RNF114 (UniProt Q9Y508),inactive: 0.033
6,RPE (UniProt Q96AT9),inactive: 0.037
7,RHOT1 isoform 3 (UniProt Q8IXI2),inactive: -0.031
8,RINT1 (UniProt Q6NUQ1),inactive: -0.021
9,ROCK1 (UniProt Q13464),inactive: 0.019
10,RNMT isoform 2 (UniProt O43148),inactive: 0
11,ROR2 (UniProt Q01974),inactive: -0.003
12,"RPL15, A0A2R8Y738",inactive: -0.211
13,RPL22 (UniProt P35268),inactive: -0.096
14,RNF123 (UniProt Q5XPI4),inactive: -0.019
15,RPF1 (UniProt Q9H9Y2),inactive: 0.089
16,RNPEP (UniProt Q9H4A4),inactive: 0.026
17,RNF149 (UniProt Q8NC42),inactive: -0.015
18,RPAP2 (UniProt Q8IXW5),inactive: 0.031

# Compound: CC1=C(SC2=C1C(=N[C@H](C3=NN=C(N32)C)CC(=O)N)C4=CC=C(C=C4)Cl)C
# Assay: as above
# In short: as §1
row,Target,log2 fold change
1,RPL15 (UniProt P61313),inactive: -0.019
2,RIPK2 (UniProt O43353),inactive: -0.012
3,RNF138 (UniProt Q8WVD3),inactive: 0.018
4,RNF141 (UniProt Q8WVD5),inactive: 0.027
5,RMND5A (UniProt Q9H871),inactive: -0.01
6,RNF40 (UniProt O75150),inactive: -0.02
7,RNASEL (UniProt Q05823),inactive: -0.041
8,RNF113A (UniProt O15541),inactive: -0.022
9,RHOXF2 (UniProt Q9BQY4),inactive: -0.023
10,RP2 (UniProt O75695),inactive: -0.007
11,RPL11 (UniProt P62913),inactive: -0.04
12,RIC8B isoform 1 (UniProt Q9NVN3),inactive: -0.011
13,RHOC (UniProt P08134),inactive: 0.043
14,RNASEH2A (UniProt O75792),inactive: -0.01
15,RNF220 (UniProt Q5VTB9),inactive: 0.047
16,RPL24 (UniProt P83731),inactive: -0.009
17,RPL23A (UniProt P62750),inactive: 0.018
18,RPGR (UniProt Q92834),inactive: -0.146
19,RLIM (UniProt Q9NVW2),inactive: 0.135

row,Target,log2 fold change
1,RNF25 (UniProt Q96BH1),inactive: 0.014
2,RIF1 (UniProt Q5UIP0),inactive: 0.018
3,RNGTT (UniProt O60942),inactive: -0.054
4,RPL28 (UniProt P46779),inactive: -0.02
5,RNF114 (UniProt Q9Y508),inactive: -0.01
6,RPE (UniProt Q96AT9),inactive: 0.241
7,RHOT1 isoform 3 (UniProt Q8IXI2),inactive: -0.061
8,RINT1 (UniProt Q6NUQ1),inactive: -0.008
9,ROCK1 (UniProt Q13464),inactive: 0.027
10,RNMT isoform 2 (UniProt O43148),inactive: -0.028
11,ROR2 (UniProt Q01974),inactive: 0.023
12,"RPL15, A0A2R8Y738",inactive: 0.026
13,RPL22 (UniProt P35268),inactive: 0.061
14,RNF123 (UniProt Q5XPI4),inactive: -0.024
15,RPF1 (UniProt Q9H9Y2),inactive: -0.055
16,RNPEP (UniProt Q9H4A4),inactive: -0.023
17,RNF149 (UniProt Q8NC42),inactive: 0.022
18,RPAP2 (UniProt Q8IXW5),inactive: -0.005

# Source: the supplement of paper PMC10849652
